Results as given in article doi:10.1101/2023.01.23.525126.
These are yes or no findings as the source states them, for the method shown. Binding seen in cells or lysates may run through a third protein. Some entries that bind do so weakly or less than the wild type. Where a sequence is shown, tags or fusion partners need not be part of it. Each block holds one binder with its values, some of them ahead of it.

Molecular target: T1, DRACC1 (Disordered Region And Coiled-Coil Domain 1; FAM81A), DRACC1-FLAG (mouse) (UniProt Q3UXZ6)
T1 sequence: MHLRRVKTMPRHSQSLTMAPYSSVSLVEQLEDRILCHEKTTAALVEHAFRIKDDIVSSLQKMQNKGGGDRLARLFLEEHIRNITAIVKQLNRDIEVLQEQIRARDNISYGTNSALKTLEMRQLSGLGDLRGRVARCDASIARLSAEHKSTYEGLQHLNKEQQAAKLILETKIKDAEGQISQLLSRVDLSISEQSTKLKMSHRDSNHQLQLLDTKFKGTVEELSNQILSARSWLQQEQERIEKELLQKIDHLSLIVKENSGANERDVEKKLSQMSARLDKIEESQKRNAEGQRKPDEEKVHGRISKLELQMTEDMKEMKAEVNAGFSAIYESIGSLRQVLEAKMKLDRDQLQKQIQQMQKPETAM
Assay: co-IP

B1: GFP-SynGAP (protein, UniProt Q9QUH6 1-1308)
chain: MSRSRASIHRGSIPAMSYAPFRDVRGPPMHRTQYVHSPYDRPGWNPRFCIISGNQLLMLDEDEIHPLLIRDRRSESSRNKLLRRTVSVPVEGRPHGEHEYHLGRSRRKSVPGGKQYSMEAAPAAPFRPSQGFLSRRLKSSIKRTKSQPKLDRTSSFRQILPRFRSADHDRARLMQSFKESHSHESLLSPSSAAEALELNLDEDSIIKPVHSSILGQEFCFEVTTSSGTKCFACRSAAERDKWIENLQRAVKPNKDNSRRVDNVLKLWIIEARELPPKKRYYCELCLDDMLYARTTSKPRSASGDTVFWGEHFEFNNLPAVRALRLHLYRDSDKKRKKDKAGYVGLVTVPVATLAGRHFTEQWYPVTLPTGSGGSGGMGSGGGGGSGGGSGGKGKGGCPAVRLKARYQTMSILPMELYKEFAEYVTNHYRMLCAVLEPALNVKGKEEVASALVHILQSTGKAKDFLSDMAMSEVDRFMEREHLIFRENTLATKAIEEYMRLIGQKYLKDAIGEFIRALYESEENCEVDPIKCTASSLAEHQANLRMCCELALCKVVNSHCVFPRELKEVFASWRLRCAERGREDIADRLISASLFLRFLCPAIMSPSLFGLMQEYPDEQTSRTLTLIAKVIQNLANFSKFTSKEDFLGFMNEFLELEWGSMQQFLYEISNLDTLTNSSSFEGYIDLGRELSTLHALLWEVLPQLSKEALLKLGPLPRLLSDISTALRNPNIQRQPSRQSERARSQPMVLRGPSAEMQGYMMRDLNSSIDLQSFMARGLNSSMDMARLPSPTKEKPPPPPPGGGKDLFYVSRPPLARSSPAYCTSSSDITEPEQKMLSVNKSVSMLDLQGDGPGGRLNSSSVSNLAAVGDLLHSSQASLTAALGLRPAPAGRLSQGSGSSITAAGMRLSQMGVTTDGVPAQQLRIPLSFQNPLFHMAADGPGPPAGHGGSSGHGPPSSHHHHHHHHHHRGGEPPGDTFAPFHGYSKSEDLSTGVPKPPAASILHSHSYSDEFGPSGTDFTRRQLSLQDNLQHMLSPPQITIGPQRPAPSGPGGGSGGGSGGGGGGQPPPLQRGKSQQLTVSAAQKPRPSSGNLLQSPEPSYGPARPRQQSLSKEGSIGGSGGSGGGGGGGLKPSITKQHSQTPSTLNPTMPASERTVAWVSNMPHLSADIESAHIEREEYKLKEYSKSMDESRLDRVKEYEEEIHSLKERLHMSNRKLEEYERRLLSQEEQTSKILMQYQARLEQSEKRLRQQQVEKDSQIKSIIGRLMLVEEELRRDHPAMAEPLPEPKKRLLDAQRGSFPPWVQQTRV
- binding: binds

- binding: binds
B2: DRACC1 (Disordered Region And Coiled-Coil Domain 1; FAM81A), DRACC1-FLAG (protein, UniProt Q3UXZ6 1-364)
chain: T1 sequence
